Measured values taken from patent publication US5652335A, “Physiologically active substance well capable of permeating biomembrane” (Teikoku Seiyaku Kabushiki Kaisha, priority 1990, dated 1997).

System: extirpated intestine of guinea pig
Assay: suppressing effect on shrinkage of extirpated intestine of guinea pig by electric stimulations (method of Kosterlitz)
Assay type: cell-based
Experimental: Adamantylated enkephalin derivatives a and b obtained in Examples 1 and 2 were examined for in vivo analgesic effect and in vitro suppressing effect to shrinkage of extirpated intestine of guinea pig by electric stimulations.
A suppressing effect for the shrinkage of extirpated intestine of guinea pig of the adamantylated enkephalin derivatives a and b was measured in accordance with the method of Kosterlitz (H. W. Kosterlitz, A. A. Watterfield, Ann. Rev. Pharmacol., 15, 29, (1975)).

SMILES: CN1CC[C@]23c4c5ccc(O)c4O[C@H]2[C@@H](O)C=C[C@H]3[C@H]1C5.Cl [Morphine hydrogen chloride]
- Relative Potency (relative to morphine hydrogen chloride = 1.00): 1.00
- ED50 (mol) (mean ± s.e.m.) (suppression of electrically stimulated shrinkage of extirpated guinea pig intestine, in vitro): 3.2 ± 0.43 × 10^-8 mol
